Results: patent publication US20040091480A1 (Kyowa Kirin, published 2004)
These are yes or no findings as the source states them, for the method shown. Some binding calls cover weakened binding; strength is not graded here.

Columns and labels:
[1] = biological target: T1, FGF-8 (manufactured by R&D) (UniProt P55075); assay: BIAcore 2000, FGF-8 on CM-5 (results of Example 4 told again)
T1 sequence (looked up): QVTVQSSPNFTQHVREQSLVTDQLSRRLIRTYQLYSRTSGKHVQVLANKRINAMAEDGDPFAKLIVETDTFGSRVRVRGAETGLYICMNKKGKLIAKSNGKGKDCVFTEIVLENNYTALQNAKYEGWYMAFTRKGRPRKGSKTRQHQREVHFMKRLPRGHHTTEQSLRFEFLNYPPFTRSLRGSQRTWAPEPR

[2] = biological target: T1, FGF-8 (manufactured by R&D); assay: BIAcore 2000, FGF-8 on CM-5 (result of item 7 of Example 4 told again)
[3] = biological target: T1, FGF-8 (manufactured by R&D); assay: BIAcore 2000, FGF-8 amine-coupled on CM-5, antibody in solution, RU height compared; dissociation hardly observed
[4] = biological target: T2, C-terminus-biotin labeled compound 1 (an N-terminus peptide of FGF-8) (human); assay: BIAcore 2000, biotin FGF-8 peptide on SA chip (result told again)
T2 sequence (peptide, C-terminus biotin label): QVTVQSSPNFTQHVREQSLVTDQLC

[5] = biological target: T2, C-terminus-biotin labeled compound 1 (an N-terminus peptide of FGF-8) (human); assay: BIAcore 2000, biotin FGF-8 peptide on SA chip, antibody in solution, RU compared; dissociation hardly observed
[6] = biological target: T3, FGF-8 protein purified from a culture broth of the mouse breast cancer cell line SC-3 at the time of testosterone stimulation (mouse) (UniProt P37237); assay: Western blotting of purified FGF-8 after SDS-PAGE, antibody at 10 ug/ml
T3 sequence (sugar chains (band of around 30 K dalton against a theoretical 22 K dalton), looked up): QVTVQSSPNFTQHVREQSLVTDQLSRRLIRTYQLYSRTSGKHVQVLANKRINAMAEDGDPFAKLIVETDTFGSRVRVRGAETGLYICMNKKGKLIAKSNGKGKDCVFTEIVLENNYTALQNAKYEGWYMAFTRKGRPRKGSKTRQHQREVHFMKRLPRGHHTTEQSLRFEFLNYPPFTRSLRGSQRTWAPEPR

[7] = biological target: T2, C-terminus-biotin labeled compound 1 (an N-terminus peptide of FGF-8) (human); assay: BIAcore 2000, biotin FGF-8 peptide on SA chip, Example 6, RU compared; dissociation hardly observed

B1: anti-FGF-8 CDR-grafted antibody HV0LV6 (YB2/0 cell-derived) (antibody, V domains shown)
VH: QVQLVQSGAEVKKPGASVKVSCKASGYTFTDYYLNWVRQAPGQGLEWMGEIDPGSDSIYYNENLEGRVTITADTSTSTAYMELSSLRSEDTAVYYCARYGYSRYDVRFVYWGQGTLVTVSS
VL: DVVMTQSPLSLPVSLGEPASISCRSSQSLVHSNGRTYLEWYLQKPGQSPKVLIYKVSNRISGVPDRFSGSGSGTDFTLKISRVEAEDVGVYFCFQGSHVPYTFGQGTKVEIK
notes: also called KM8037; FERM BP-8084
Which binding [1] does the source give for B1 here?
Its binding is “binds”.

What about the binding [2] of the same binder?
Its binding is “binds”.

What about the binding [3] of the same binder?
The binding was “binds”.

B2: anti-FGF-8 CDR-grafted antibody HV0LV0 (YB2/0 cell-derived) (antibody, V domains shown)
VH: QVQLVQSGAEVKKPGASVKVSCKASGYTFTDYYLNWVRQAPGQGLEWMGEIDPGSDSIYYNENLEGRVTITADTSTSTAYMELSSLRSEDTAVYYCARYGYSRYDVRFVYWGQGTLVTVSS
VL: DIVMTQSPLSLPVTPGEPASISCRSSQSLVHSNGRTYLEWYLQKPGQSPQLLIYKVSNRISGVPDRFSGSGSGTDFTLKISRVEAEDVGVYYCFQGSHVPYTFGQGTKVEIK
For B2, which binding [3] is on record?
Its binding is “binds”.

B3: anti-FGF-8 CDR-grafted antibody HV6LV6 (YB2/0 cell-derived) (antibody, V domains shown)
VH: QVQLVQSGAEVARPGASVKVSCKASGYTFTDYYLNWVRQRSGQGLEWIGEIDPGSDSIYYNENLEGRVTITADTSTSTAYMELSSLRSEDTAVYFCARYGYSRYDVRFVYWGQGTLVTVSS
VL: DVVMTQSPLSLPVSLGEPASISCRSSQSLVHSNGRTYLEWYLQKPGQSPKVLIYKVSNRISGVPDRFSGSGSGTDFTLKISRVEAEDVGVYFCFQGSHVPYTFGQGTKVEIK
With B3 as the binder, how does the binding [3] read?
The binding was “binds”.

B4: anti-FGF-8 CDR-grafted antibody HV0LV4-1/CHO (antibody, V domains shown)
VH: QVQLVQSGAEVKKPGASVKVSCKASGYTFTDYYLNWVRQAPGQGLEWMGEIDPGSDSIYYNENLEGRVTITADTSTSTAYMELSSLRSEDTAVYYCARYGYSRYDVRFVYWGQGTLVTVSS
VL: DVVMTQSPLSLPVTPGEPASISCRSSQSLVHSNGRTYLEWYLQKPGQSPKVLIYKVSNRISGVPDRFSGSGSGTDFTLKISRVEAEDVGVYFCFQGSHVPYTFGQGTKVEIK
How did the binding [4] turn out when B4 was run?
The binding was “binds”.

And the binding [5]?
Its binding is “binds”.

B5: anti-FGF-8 CDR-grafted antibody HV0LV2-1/CHO (antibody, V domains shown)
VH: QVQLVQSGAEVKKPGASVKVSCKASGYTFTDYYLNWVRQAPGQGLEWMGEIDPGSDSIYYNENLEGRVTITADTSTSTAYMELSSLRSEDTAVYYCARYGYSRYDVRFVYWGQGTLVTVSS
VL: DIVMTQSPLSLPVTPGEPASISCRSSQSLVHSNGRTYLEWYLQKPGQSPQVLIYKVSNRISGVPDRFSGSGSGTDFTLKISRVEAEDVGVYFCFQGSHVPYTFGQGTKVEIK
B5 was tested. Which binding [4] did it give?
Its binding is “binds”.

What about the binding [5] of the same binder?
Its binding is “binds”.

B6: anti-FGF-8 monoclonal antibody KM 1334 (antibody, mouse IgG1, V domains shown)
VH: QVQLQQSGAEVARPGASVKLSCKASGYTFTDYYLNWVKQRSGQGLEWIGEIDPGSDSIYYNENLEGRATLTADKSSSTAYMQLNSLTSEDSAVYFCARYGYSRYDVRFVYWGQGTLVTVST
VL: DVLMTQTPLSLPVSLGDQASISCRSSQSLVHSNGRTYLEWYLQKPGQSPKVLIYKVSNRISGVPDRFSGSGSGTDFTLKISRVEAEDLGVYFCFQGSHVPYTFGGGTKLEIK
notes: Mouse IgG1, kappa L chain, purified from ascites; also called anti-FGF-8 mouse antibody KM1334; antibody of hybridoma FERM BP-5451
With B6 as the binder, how does the binding [6] read?
The binding was “binds”.

B7: anti-FGF-8 CDR-grafted antibody HV0LV3-3/CHO (antibody, V domains shown)
VH: QVQLVQSGAEVKKPGASVKVSCKASGYTFTDYYLNWVRQAPGQGLEWMGEIDPGSDSIYYNENLEGRVTITADTSTSTAYMELSSLRSEDTAVYYCARYGYSRYDVRFVYWGQGTLVTVSS
VL: DIVMTQSPLSLPVSLGEPASISCRSSQSLVHSNGRTYLEWYLQKPGQSPQVLIYKVSNRISGVPDRFSGSGSGTDFTLKISRVEAEDVGVYYCFQGSHVPYTFGQGTKVEIK
B7 was tested. Which binding [7] did it give?
The binding was “binds”.

B8: anti-FGF-8 chimeric antibody KM3334 (antibody, V domains shown)
VH: QVQLQQSGAEVARPGASVKLSCKASGYTFTDYYLNWVKQRSGQGLEWIGEIDPGSDSIYYNENLEGRATLTADKSSSTAYMQLNSLTSEDSAVYFCARYGYSRYDVRFVYWGQGTLVTVST
VL: DVLMTQTPLSLPVSLGDQASISCRSSQSLVHSNGRTYLEWYLQKPGQSPKVLIYKVSNRISGVPDRFSGSGSGTDFTLKISRVEAEDLGVYFCFQGSHVPYTFGGGTKLEIK
For B8, which binding [3] is on record?
The binding was “binds”.
